Reference: PubChem BioAssay AID1259405 (NCATS, 2018)
Assay: 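Mouse-designed siRNAs used to find CHO productivity engineering targets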 (primary screen). Cells: Chinese hamster CHO-K1 ovary cells with stable secreted eGFP expression. Reagent: single siRNA against mouse genes, 0.8 pmol siRNA per well (2 µl of 400 nM stock). Timing: 3 days. Read-out: 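Percent of the per-plate non-targeting control median for intracellular GFP per well by laser scanning cytometry and for cell viability by ATP luminescence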. Direction: GFP, % of control: higher = more GFP per well, higher productivity; viability (ATP), % of control: higher = more viable cells (more ATP). Hit rule: 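Called active when intracellular GFP, relative to negative control, is at or above 120%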.
The deposit covers about 50,000 reagents; this is a random part of them. About 4,000 of all reagents (8%) count as active. 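Mouse siRNA library applied to hamster cells; one well for each siRNA.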 Reagents against one gene are numbered here.

With knock-down of Ifna4 #1, the screen gave GFP, % of control 75.4; viability (ATP), % of control 65.3; inactive. Depletion of Ifna4 #2 gave: GFP, % of control 67.6; viability (ATP), % of control 70.8; inactive. After knock-down of Ifna4 #3, the screen gave GFP, % of control 54; viability (ATP), % of control 53.7; inactive. For Sh2d1b1 #1, the entry reads GFP, % of control 73; viability (ATP), % of control 88.2; inactive. With knock-down of Sh2d1b1 #2, the screen gave GFP, % of control 98.2; viability (ATP), % of control 101; inactive. Sh2d1b1 #3 showed GFP, % of control 164; viability (ATP), % of control 53.4; active.

For Dok4 #1 the deposit lists GFP, % of control 67.3; viability (ATP), % of control 78.5; inactive. For Dok4 #2, the entry reads GFP, % of control 71.7; viability (ATP), % of control 64.8; inactive. Against Dok4 #3, the values are GFP, % of control 90.4; viability (ATP), % of control 65.8; inactive. Knock-down of Lilra6 #1 gave: GFP, % of control 174; viability (ATP), % of control 62.8; active. Silencing of Lilra6 #2 gave: GFP, % of control 95.8; viability (ATP), % of control 67.9; inactive. For Lilra6 #3, the entry reads GFP, % of control 84.5; viability (ATP), % of control 82.6; inactive.

For Fras1 #1, the values are GFP, % of control 70.8; viability (ATP), % of control 72.5; inactive. Fras1 #2 gave GFP, % of control 64.1; viability (ATP), % of control 87.7; inactive. Fras1 #3 showed GFP, % of control 57.5; viability (ATP), % of control 65.3; inactive.

Part of the list above in another layout.
{"gene": "Ifna4", "reagent no.": 2, "GFP, % of control": 67.6, "viability (ATP), % of control": 70.8, "outcome": "inactive"}
{"gene": "Ifna4", "reagent no.": 3, "GFP, % of control": 54, "viability (ATP), % of control": 53.7, "outcome": "inactive"}
{"gene": "Sh2d1b1", "reagent no.": 1, "GFP, % of control": 73, "viability (ATP), % of control": 88.2, "outcome": "inactive"}

Continued:
Aldh16a1 #1 gave GFP, % of control 40; viability (ATP), % of control 56.1; inactive. With knock-down of Aldh16a1 #2 the results were GFP, % of control 49.7; viability (ATP), % of control 65.2; inactive. Knock-down of Aldh16a1 #3 resulted in: GFP, % of control 77.5; viability (ATP), % of control 68; inactive. For Loxl3 #1 the deposit lists GFP, % of control 50.7; viability (ATP), % of control 54.2; inactive. Depletion of Loxl3 #2 resulted in: GFP, % of control 42.5; viability (ATP), % of control 39.3; inactive. With knock-down of Loxl3 #3 the results were GFP, % of control 62.1; viability (ATP), % of control 67.3; inactive.

Against Slitrk4 #1, the values are GFP, % of control 70.7; viability (ATP), % of control 89.4; inactive. With knock-down of Slitrk4 #2, the record shows GFP, % of control 60.3; viability (ATP), % of control 83.5; inactive. With knock-down of Slitrk4 #3 the results were GFP, % of control 49.7; viability (ATP), % of control 91.8; inactive. Knock-down of Adam18 #1 came out at: GFP, % of control 56.4; viability (ATP), % of control 31.7; inactive. Knock-down of Adam18 #2 came out at: GFP, % of control 84.7; viability (ATP), % of control 78.3; inactive. Against Adam18 #3, the values are GFP, % of control 86.4; viability (ATP), % of control 90.6; inactive.

Smim30 #1 scored GFP, % of control 72.1; viability (ATP), % of control 63.8; inactive. After knock-down of Smim30 #2 the results were GFP, % of control 65.8; viability (ATP), % of control 44.2; inactive. Depletion of Smim30 #3 came out at: GFP, % of control 75.6; viability (ATP), % of control 83.5; inactive. Against Sulf2 #1, the values are GFP, % of control 91.8; viability (ATP), % of control 87.5; inactive. Depletion of Sulf2 #2 gave: GFP, % of control 82.7; viability (ATP), % of control 103; inactive. Against Sulf2 #3, the entry reads GFP, % of control 64.2; viability (ATP), % of control 70.3; inactive.

Depletion of Amigo2 #1 resulted in: GFP, % of control 90.4; viability (ATP), % of control 87.9; inactive. Silencing of Amigo2 #2 resulted in: GFP, % of control 130; viability (ATP), % of control 77.7; active. With knock-down of Amigo2 #3, the screen gave GFP, % of control 127; viability (ATP), % of control 83.1; active. With knock-down of Twnk #1, the screen gave GFP, % of control 38; viability (ATP), % of control 38; inactive. Against Twnk #2, the entry reads GFP, % of control 129; viability (ATP), % of control 81.6; active. With knock-down of Twnk #3 the results were GFP, % of control 48.2; viability (ATP), % of control 60.7; inactive.

After knock-down of Rin2 #1, the record shows GFP, % of control 104; viability (ATP), % of control 87.6; inactive. Rin2 #2 showed GFP, % of control 51.6; viability (ATP), % of control 71; inactive. Knock-down of Rin2 #3 resulted in: GFP, % of control 68.5; viability (ATP), % of control 70.2; inactive.
